Measured values as given in article PMC12068309.
No constants are given. Whether binding was seen depends on the method and setting. In cells and extracts the contact can be indirect. Some entries that bind do so weakly or less than the wild type. Sequences can lack the tags named with a protein.

The chains behind the UniProt entries cited, without tags or fusion partners.
UniProt O43865: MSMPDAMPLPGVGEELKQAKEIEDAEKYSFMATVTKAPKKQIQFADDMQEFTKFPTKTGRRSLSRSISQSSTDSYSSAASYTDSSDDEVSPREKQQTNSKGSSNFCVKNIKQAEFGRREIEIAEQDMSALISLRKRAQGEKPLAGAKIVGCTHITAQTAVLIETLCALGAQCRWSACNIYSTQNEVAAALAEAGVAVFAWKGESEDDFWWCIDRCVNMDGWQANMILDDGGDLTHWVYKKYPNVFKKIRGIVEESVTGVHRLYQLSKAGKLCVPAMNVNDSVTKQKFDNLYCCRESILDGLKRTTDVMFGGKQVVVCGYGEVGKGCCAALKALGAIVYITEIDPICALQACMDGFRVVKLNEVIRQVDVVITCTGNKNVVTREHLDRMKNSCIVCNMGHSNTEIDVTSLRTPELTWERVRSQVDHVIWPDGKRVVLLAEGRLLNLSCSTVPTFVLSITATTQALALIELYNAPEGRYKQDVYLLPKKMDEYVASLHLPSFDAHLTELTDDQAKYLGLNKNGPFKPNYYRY

Target: HA-AHCYL1 (UniProt O43865)
Experiment: co-IP; exogenous proteins in HEK293T; IP with HA antibody, detected by Myc antibody

| binding | Binder |
| --- | --- |
| binds | Myc-PREX2 PH domain (domain or fragment, UniProt Q70Z35 245-361) EMLMCGVLLKISSGNIQERVFFLFDNLLVYCKRKHRRLKNSKASTDGHRYLFRGRINTEVMEVENVDDGTADFHSSGHIVVNGWKIHNTAKNKWFVCMAKTPEEKHEWFEAILKERE |
| binds | Myc-PREX2 DH domain (domain or fragment, UniProt Q70Z35 23-214) LRVCVLSELQKTERDYVGTLEFLVSAFLHRMNQCAASKVDKNVTEETVKMLFSNIEDILAVHKEFLKVVEECLHPEPNAQQEVGTCFLHFKDKFRIYDEYCSNHEKAQKLLLELNKIRTIRTFLLNCMLLGGRKNTDVPLEGYLVTPIQRICKYPLILKELLKRTPRKHSDYAAVMEALQAMKAVCSNINEA |
